Reference: PubChem BioAssay AID624297 (National Center for Advancing Translational Sciences (NCATS), 2012)
Among all 340,000 compounds or so, about 6,200 (1.8%) were called active. Inconclusive means that the source gave no clear call. Such entries were picked first, then a sample of the others. Calls follow the shape of the dose curve; as a rule, active = well fitted activation curve with a large enough effect; inconclusive = small, poorly fitted or top-dose-only effect; inactive = no such curve, though single readings can be large or run the other way. Potencies of inconclusive entries are doubtful fits and often do not repeat.

Assay: A quantitative high throughput screen for small molecules that induce DNA re-replication in SW480 colon adenocarcinoma cells. Also: nearly all actives have a fitted effect of over 55% in size. As to re-replication activation: % of control where 0% means no effect.
Details: Hoechst DNA content imaging, 48 h; re-replication activation: at 46.1 µM (top of the series)
In short: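 250 cells/well; 23 nL cpd via pin tool; 48 hr, 37 C, 5% CO2; Hoechst 40 min; imager read of total nuclear intensity, ex 405/em 500-530 nm.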
Potency is read from the fitted curve at half-maximal effect.

Question: With `CCN(CC(=O)Nc1cc(Cl)ccc1-n1cncn1)Cc1nc2ccccc2c(=O)[nH]1` as the compound, how does the Potency read?
Answer: inactive

Question: With `C/C(=N/NC(=O)CNC(=O)c1ccc2c(c1)OCO2)c1ccc2c(c1)CCCC2` as the compound, how does the Potency read?
Answer: inconclusive: 32.6 µM [activator, partial curve, poor fit]

Question: Which Potency does the source give for `CSc1nc(N)nc2c1ncn2CC(=O)NCCNc1ccc([N+](=O)[O-])cn1` here?
Answer: inactive

Question: With `CC1=C(C(=O)OC(C)C)C(c2cccs2)C(C(=O)OC(C)C)=C(C)N1` as the compound, how does the Potency read?
Answer: inactive

Question: For `CCc1cc2c(=O)c(-c3nc4ccccc4n3C)c(COCC(=O)O)oc2cc1OC(=O)C(C)(C)C`, which Potency is on record?
Answer: inconclusive: 29.1 µM [activator, single point]

Question: Which re-replication activation does the source give for `O=S(=O)(NC1CC2CCC1C2)c1ccc(Cl)cc1` (configuration not stated) here?
Answer: inconclusive: 21.8% [activator]

Question: Which Potency does the source give for `CN(CC(=O)Nc1ccccc1C(=O)NC1CC1)Cc1cccs1` here?
Answer: inconclusive: 29.1 µM [activator, single point]

Question: For `COc1cc2c(cc1OC)[C@@H](NC(=O)CCc1ccccc1)[C@H](OCc1ccccc1)C2`, which Potency is on record?
Answer: inconclusive: 29.1 µM [activator, single point]

Question: For `Cc1noc(C)c1COc1cccc(C(=O)OC(C)C(=O)Nc2ccc3c(c2)OCO3)c1` (configuration not stated), which Potency is on record?
Answer: inconclusive: 29.1 µM [activator, single point]

Question: With `c1ccc(Cn2nnc3c(N4CCc5ccccc54)ncnc32)cc1` as the compound, how does the Potency read?
Answer: inactive

Question: Which Potency does the source give for `CCCCCCOC(=O)C[N+](C)(C)CCOC1CC2CCC1(C)C2(C)C` (configuration not stated) here?
Answer: inactive

Question: With `COc1ccc(-c2cc(C)no2)cc1S(=O)(=O)Nc1cccc(C)c1` as the compound, how does the Potency read?
Answer: inconclusive: 29.1 µM [activator, single point]

Question: Which Potency does the source give for `O=C(Nc1ccncc1)c1cc2ccccc2cc1O` here?
Answer: inactive

Question: With `COc1cccc(NC(=O)COC(=O)c2c3c(nc4ccccc24)CCC(C)C3)c1` (configuration not stated) as the compound, how does the Potency read?
Answer: inconclusive: 29.1 µM [activator, single point]

Question: For `CCOc1cc(C(N)=O)cc(Br)c1OCC`, which Potency is on record?
Answer: inactive

Question: With `CCOC(=O)c1ccc(N2CCN(C(=O)c3ccccc3)CC2)c(NC(=O)c2ccco2)c1` as the compound, how does the Potency read?
Answer: inactive

Question: Which Potency does the source give for `Cc1cccc(Nc2nc(-c3ccccc3)c(C(=O)Nc3cccnc3)s2)c1` here?
Answer: active: 16.4 µM

Question: For `CCOc1ccc(/C=N/NC(=S)NC2CC3C=CC2C3)cc1` (configuration not stated), which Potency is on record?
Answer: inconclusive: 29.1 µM [activator, single point]

Question: Which Potency does the source give for `Cc1cccc(N(CC(=O)N/N=C/c2cc([N+](=O)[O-])ccc2Cl)S(C)(=O)=O)c1C` here?
Answer: inconclusive: 20.6 µM [activator, partial curve, poor fit]

Question: For `NS(=O)(=O)c1cc(C(=O)OCC(=O)Nc2ccc3[nH]c(=O)[nH]c3c2)ccc1Cl`, which Potency is on record?
Answer: inactive

Question: Which Potency does the source give for `O=C(Cc1sc(-c2ccccc2)nc1-c1ccccc1)Nc1ccccc1` here?
Answer: inactive

Question: Which Potency does the source give for `CCn1nc(C)c(NC(=O)c2cnn3c(C(F)F)cc(-c4ccccc4)nc23)c1C` here?
Answer: inactive

Question: With `CCOC(=O)C1(Cc2cccc(OC)c2)CCN(Cc2ccccc2)CC1` as the compound, how does the Potency read?
Answer: inactive

Question: For `O=C(Cn1ncc(Cl)c(Cl)c1=O)NC1CCCCC1`, which Potency is on record?
Answer: active: 1.3 µM

Question: With `Cc1cc([N+](=O)[O-])nn1CC(=O)Nc1ccc(Cl)cn1` as the compound, how does the Potency read?
Answer: inconclusive: 23.1 µM [activator, partial curve, poor fit]

Question: Which Potency does the source give for `Cc1c(C(=O)NN2CCOCC2)oc2c1ccc1ccccc12` here?
Answer: inactive

Question: For `CC(C)CCNC(=O)C12CN(Cc3ccccc3)CC1C(c1ccc([N+](=O)[O-])cc1)=NO2` (configuration not stated), which Potency is on record?
Answer: inactive

Question: With `COc1ccc(NC(=O)c2cccc(Oc3ccc([N+](=O)[O-])cc3Cl)c2)cc1` as the compound, how does the Potency read?
Answer: inconclusive: 29.1 µM [activator, single point]

Question: Which Potency does the source give for `COc1ccc(C)cc1-n1c(SCC(=O)NC2CC2)nc2ccccc2c1=O` here?
Answer: inactive

Question: With `Cc1ccc(S(=O)(=O)c2nc(-c3ccccc3Cl)oc2N(C)C)cc1` as the compound, how does the Potency read?
Answer: inconclusive: 18.4 µM [activator, single point]

Question: For `O=C1CC(SCc2nc3ccccc3[nH]2)C(=O)N1c1ccc(F)c(Cl)c1` (configuration not stated), which Potency is on record?
Answer: inactive

Question: With `C=CCn1c(SCC(=O)c2cc(C)n(Cc3cccs3)c2C)nnc1-c1ccncc1` as the compound, how does the re-replication activation read?
Answer: inactive: 0.0709% [at 9.22 µM]

Question: With `Cc1ccccc1OCC(=O)Nc1sc2c(c1C#N)CC(C)(C)NC2(C)C` as the compound, how does the Potency read?
Answer: inconclusive: 18.4 µM [activator, single point]

Question: For `CCCNC(=O)c1ccccc1NC(=O)COc1ccc(OC)cc1`, which Potency is on record?
Answer: inactive

Question: With `COc1ccc(NC(=O)C2CCN(c3ncnc4c3nc3n4CCCCC3)CC2)c(OC)c1` as the compound, how does the Potency read?
Answer: inconclusive: 32.6 µM [activator, partial curve, poor fit]

Question: For `CC1(C)Cc2c(C#N)c(SCC(=O)c3ccccc3)nc(N3CCOCC3)c2CS1`, which Potency is on record?
Answer: inconclusive: 29.1 µM [activator, partial curve, poor fit]

Question: For `O=C(NNC(=O)c1ccccc1O)c1ccc(S(=O)(=O)Nc2ccccc2)cc1`, which Potency is on record?
Answer: active: 11.2 µM

Question: With `Oc1c(Br)cc(Br)cc1/C=N/Nc1ccc(Cl)nn1` as the compound, how does the Potency read?
Answer: inconclusive: 16.4 µM [activator, partial curve, poor fit]

Question: For `Cc1oc(-c2ccc(Cl)cc2)nc1CN1CCC(C(=O)NCc2ccco2)CC1`, which Potency is on record?
Answer: inconclusive: 23.1 µM [activator, single point]

Question: For `Cc1cccc(-c2noc(CCCC(=O)NC3CCCCC3)n2)c1`, which Potency is on record?
Answer: inactive

Question: Which Potency does the source give for `CSc1ccc(CN(C)C(=O)c2ccc(S(=O)(=O)Nc3ccccc3)cc2)cc1` here?
Answer: inactive

Question: With `CCNC(=O)/C(C#N)=C/c1c(N2CCN(C)CC2)nc2c(C)cccn2c1=O` as the compound, how does the Potency read?
Answer: inconclusive: 32.6 µM [activator, partial curve, poor fit]

Question: Which Potency does the source give for `O=c1[nH]c2ccccc2c2ccccc12` here?
Answer: inconclusive: 29.1 µM [activator, single point]

Question: Which Potency does the source give for `O=C1CN(C(=O)c2cc(Br)c(Br)s2)c2ccccc2N1` here?
Answer: inconclusive: 16.4 µM [activator, single point]

Question: Which Potency does the source give for `CN(C)CCN(C(=O)/C=C/c1cccs1)c1nc2c(F)cc(F)cc2s1` here?
Answer: inconclusive: 25.9 µM [activator, single point]

Question: Which Potency does the source give for `CCC(C)c1ccc(NC(=S)NCc2cccs2)cc1` (configuration not stated) here?
Answer: inconclusive: 29.1 µM [activator, single point]

Question: With `C[C@H]1O[C@@H](O[C@H]2CC[C@@]3(C)C(CC[C@]4(C)C3C=C[C@]35OC[C@@]6(CCC(C)(C)C[C@H]63)[C@@H](O)C[C@]54C)[C@]2(C)CO)[C@H](O)[C@@H](O[C@@H]2O[C@H](CO)[C@@H](O)[C@H](O)[C@H]2O)[C@H]1O` (some centres not stated) as the compound, how does the Potency read?
Answer: inconclusive: 14.6 µM [activator, partial curve, poor fit]
